Consider 1 compound from patent US20100247658A1, “ORGANIC COMPOUNDS” (priority 2007, published 2010).

For the data set the following is noted: coarse unmilled.

Consider `C[N+]1(C)CCC(OC(=O)C(O)(c2ccccc2)C2CCCC2)C1.[Br-]` (stereo not shown) [glycopyrrolate, 3-[(cyclopentyl-hydroxyphenylacetyl)oxy]-1,1-dimethyl-pyrrolidinium bromide], for which the “ka/kb ratio (acid-basic ratio describing surface properties)” value worked out at 1.0.
